Taken from: PubChem BioAssay AID1259405 (NCATS, 2018)

- Test: 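Mouse-designed siRNAs used to find CHO productivity engineering targets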 (primary screen)
- Cells: Chinese hamster CHO-K1 ovary cells with stable secreted eGFP expression
- Knock-down reagent: single siRNA against mouse genes, 0.8 pmol siRNA per well (2 µl of 400 nM stock)
- Time to read-out: 3 days
- Detection: 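Per-well intracellular GFP measured by laser scanning cytometry, plus viability from ATP luminescence, each relative to plate median of non-targeting control wells, in %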
- Scale: GFP, % of control: higher = more GFP per well, higher productivity; viability (ATP), % of control: higher = more viable cells (more ATP)
- Hit rule: 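Called active when intracellular GFP, relative to negative control, is at or above 120%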
The deposit covers about 50,000 reagents; shown is an unselected part. In the full data, about 4,000 (8%) got an active call. 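Mouse siRNA library applied to hamster cells; one well for each siRNA.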 The numbers tell different reagents against one gene apart.

| Target gene | siRNA no. | GFP, % of control | viability (ATP), % of control | outcome |
| --- | --- | --- | --- | --- |
| BC107364 | 1 | 42.9 | 68.5 | inactive |
| BC107364 | 2 | 51.8 | 55.1 | inactive |
| BC107364 | 3 | 101 | 92.9 | inactive |
| Lsm3 | 1 | 122 | 114 | active |
| Lsm3 | 2 | 75.9 | 70.8 | inactive |
| Lsm3 | 3 | 67.9 | 54.4 | inactive |
| Agbl5 | 1 | 66.9 | 37.3 | inactive |
| Agbl5 | 2 | 89.6 | 59 | inactive |
| Agbl5 | 3 | 54.5 | 49.5 | inactive |
| Pter | 1 | 91.3 | 103 | inactive |
| Pter | 2 | 93.1 | 79.7 | inactive |
| Pter | 3 | 24.6 | 41.1 | inactive |
| Notch4 | 1 | 57 | 42.6 | inactive |
| Notch4 | 2 | 84 | 81.9 | inactive |
| Sp1 | 1 | 112 | 88.9 | inactive |
| Sp1 | 2 | 81.5 | 63.6 | inactive |
| Slfn3 | 1 | 55.9 | 44.4 | inactive |
| Slfn3 | 2 | 46.6 | 69.6 | inactive |
| Slfn3 | 3 | 63.2 | 69.3 | inactive |
| Cd109 | 1 | 85.8 | 70.8 | inactive |
| Cd109 | 2 | 108 | 70.8 | inactive |
| Cd109 | 3 | 117 | 134 | inactive |
| H2bc21 | 1 | 61.4 | 84 | inactive |
| H2bc21 | 2 | 92.7 | 67.2 | inactive |
| H2bc21 | 3 | 96.8 | 63.9 | inactive |
| E230016K23Rik | 1 | 89.4 | 113 | inactive |
| E230016K23Rik | 2 | 87.7 | 106 | inactive |
| E230016K23Rik | 3 | 58 | 38.5 | inactive |
| Il20ra | 1 | 120 | 106 | active |
| Il20ra | 2 | 83.7 | 90 | inactive |
| Il20ra | 3 | 50.9 | 59.8 | inactive |
| Kctd14 | 1 | 68.8 | 67.1 | inactive |
| Kctd14 | 2 | 172 | 113 | active |
| BC061237 | 1 | 112 | 54.4 | inactive |
| BC061237 | 2 | 81.4 | 92.5 | inactive |
| BC061237 | 3 | 92.5 | 108 | inactive |
| Oxct1 | 1 | 96.8 | 89.2 | inactive |
| Oxct1 | 2 | 19.1 | 47.1 | inactive |
| Oxct1 | 3 | 141 | 116 | active |
| Usp27x | 1 | 99.1 | 98.3 | inactive |
| Usp27x | 2 | 63.9 | 62.1 | inactive |
| Usp27x | 3 | 44.8 | 68.1 | inactive |
| Or2b28 | 1 | 74.9 | 79.6 | inactive |
| Or2b28 | 2 | 86.8 | 95.7 | inactive |
| Or2b28 | 3 | 50.8 | 86.6 | inactive |
| Vmn1r171 | 1 | 92.5 | 58.9 | inactive |
| Vmn1r171 | 2 | 73.5 | 58.2 | inactive |
| Vmn1r171 | 3 | 83.1 | 69.8 | inactive |
| Zfp459 | 1 | 54.2 | 57.9 | inactive |
| Zfp459 | 2 | 64 | 68 | inactive |
| Zfp459 | 3 | 66.1 | 71.5 | inactive |
| Nek8 | 1 | 43.1 | 57.4 | inactive |
| Adora2a | 1 | 46.3 | 49.1 | inactive |
| Adora2a | 2 | 77.2 | 76.6 | inactive |
| Adora2a | 3 | 63.2 | 58 | inactive |
| Nbn | 1 | 67.8 | 45.5 | inactive |
| Nbn | 2 | 90.9 | 74.2 | inactive |
| Nbn | 3 | 65.6 | 51.8 | inactive |
| Cntn3 | 1 | 88.7 | 88.2 | inactive |
| Cntn3 | 2 | 69.5 | 62.9 | inactive |
| Cntn3 | 3 | 72.9 | 89.7 | inactive |
| Smarca2 | 1 | 82.1 | 71.3 | inactive |
| Smarca2 | 2 | 90.7 | 86 | inactive |
| Smarca2 | 3 | 66 | 51.7 | inactive |
| Or10v1 | 1 | 98.4 | 112 | inactive |
| Or10v1 | 2 | 85.8 | 84.1 | inactive |
| Or10v1 | 3 | 130 | 90.2 | active |
| Ccdc116 | 1 | 79.3 | 44.8 | inactive |
| Ccdc116 | 2 | 104 | 42.9 | inactive |
| Ccdc116 | 3 | 75.3 | 74.5 | inactive |
| Phka2 | 1 | 63.7 | 68.7 | inactive |
| Phka2 | 2 | 107 | 95.2 | inactive |
| Tagln | 1 | 45.6 | 61 | inactive |
| Tagln | 2 | 38.6 | 31.7 | inactive |
| Tagln | 3 | 58.4 | 78.6 | inactive |
| Atxn7l2 | 1 | 81.8 | 69.2 | inactive |
| Atxn7l2 | 2 | 45.5 | 81.5 | inactive |
| Atxn7l2 | 3 | 59.2 | 70.9 | inactive |
| Mdh1b | 1 | 101 | 55 | inactive |
| Mdh1b | 2 | 74.5 | 61.3 | inactive |
| Mdh1b | 3 | 91.3 | 112 | inactive |
| Mpp1 | 1 | 55.8 | 51 | inactive |
| Vmn1r24 | 1 | 110 | 94.1 | inactive |
| Vmn1r24 | 2 | 80.7 | 90 | inactive |
| Vmn1r24 | 3 | 99.8 | 110 | inactive |
| Gla | 1 | 135 | 94.7 | active |
| Gla | 2 | 89.9 | 74.1 | inactive |
| Gla | 3 | 93.4 | 83.3 | inactive |
| Cd200r1l | 1 | 103 | 59.3 | inactive |
| Cd200r1l | 2 | 45.8 | 74.9 | inactive |
| Cd200r1l | 3 | 40.6 | 69.4 | inactive |
| Cpsf4 | 1 | 67.4 | 77.2 | inactive |
| Cpsf4 | 2 | 45.3 | 48.3 | inactive |
| Cpsf4 | 3 | 63.9 | 80 | inactive |
| Osr1 | 1 | 51.6 | 58.7 | inactive |
| Osr1 | 2 | 78.5 | 79.5 | inactive |
| Osr1 | 3 | 63.3 | 45.6 | inactive |
| Rbm3 | 1 | 65.8 | 70 | inactive |
| Rbm3 | 2 | 68.3 | 92.3 | inactive |
| Rbm3 | 3 | 52 | 58.5 | inactive |
| Btbd9 | 1 | 97.9 | 105 | inactive |
| Btbd9 | 2 | 95.8 | 81.9 | inactive |
| Btbd9 | 3 | 136 | 143 | active |
| Or3a1d | 1 | 38.9 | 30.3 | inactive |
| Or3a1d | 2 | 98.7 | 82.4 | inactive |
| Or3a1d | 3 | 30.7 | 36 | inactive |
| Usp18 | 1 | 91.1 | 92.5 | inactive |
| Usp18 | 2 | 37.5 | 39.9 | inactive |
| Usp18 | 3 | 62.7 | 56.8 | inactive |

Reprinted from the listing, 8 entries:
| Target gene | siRNA no. | GFP, % of control | viability (ATP), % of control | outcome |
| --- | --- | --- | --- | --- |
| Or2b28 | 2 | 86.8 | 95.7 | inactive |
| Or2b28 | 3 | 50.8 | 86.6 | inactive |
| Vmn1r171 | 1 | 92.5 | 58.9 | inactive |
| Vmn1r171 | 2 | 73.5 | 58.2 | inactive |
| Vmn1r171 | 3 | 83.1 | 69.8 | inactive |
| Zfp459 | 1 | 54.2 | 57.9 | inactive |
| Zfp459 | 2 | 64 | 68 | inactive |
| Zfp459 | 3 | 66.1 | 71.5 | inactive |
